Results are percentages, as filed. The record does not define 0% and 100%; most values in the screen are far below 50% and negative numbers occur (in some assays of this library far below -100). Compounds were drawn at random from those tested, without regard to their results.

Chains of the proteins cited; added tags and fusions are not shown.
UniProt E9BF75, entry or part of it: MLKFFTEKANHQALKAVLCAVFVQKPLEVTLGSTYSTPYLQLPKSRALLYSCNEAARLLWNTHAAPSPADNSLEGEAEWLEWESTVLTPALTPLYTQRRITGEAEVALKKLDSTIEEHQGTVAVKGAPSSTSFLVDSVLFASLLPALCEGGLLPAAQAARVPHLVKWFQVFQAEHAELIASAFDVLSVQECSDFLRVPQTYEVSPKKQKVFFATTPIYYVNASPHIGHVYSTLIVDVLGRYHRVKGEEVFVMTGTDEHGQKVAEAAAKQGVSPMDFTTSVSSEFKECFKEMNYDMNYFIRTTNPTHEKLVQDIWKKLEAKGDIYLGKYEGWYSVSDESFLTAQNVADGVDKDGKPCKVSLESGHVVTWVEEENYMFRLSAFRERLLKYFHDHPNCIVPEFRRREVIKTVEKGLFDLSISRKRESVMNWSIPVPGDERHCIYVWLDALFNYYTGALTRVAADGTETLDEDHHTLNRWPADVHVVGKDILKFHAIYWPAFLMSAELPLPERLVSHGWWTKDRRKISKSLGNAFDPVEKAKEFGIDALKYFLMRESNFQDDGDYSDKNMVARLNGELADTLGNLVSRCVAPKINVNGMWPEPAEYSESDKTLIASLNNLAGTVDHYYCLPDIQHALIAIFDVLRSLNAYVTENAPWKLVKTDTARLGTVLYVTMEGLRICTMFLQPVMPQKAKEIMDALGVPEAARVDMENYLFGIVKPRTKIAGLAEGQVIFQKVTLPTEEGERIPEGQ

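Primary screen of methionyl-tRNA synthetase; the read-out is not stated. Target: Methionyl-tRNA synthetase (putative), Leishmania donovani (UniProt E9BF75). The test concentration is not given. The values are filed as inhibition. Of about 68,000 compounds tested this way, about 24 (0.035%) reached 50% or more in at least one test.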

Result for CN(Cc1nncn1C)c1nccc(N2CCC(O)CC2)n1 was 1.393%. Result for O=C(NC[C@]12COC[C@H]1CN(Cc1ccco1)C2)c1ccccc1 was 13.54%. For CN(C)S(=O)(=O)N1C[C@H]2CCC[C@@]2(COCC2CCOCC2)C1 the result was 1.047%. With Cc1cc(C)c(CNC(=O)NC(C)c2ccc3c(c2)CCC3)c(=O)[nH]1 (stereo not drawn) the screen gave 17.88%.

Result for CC(C(=O)NCc1cccc(N2CC=CC2)c1)n1cccn1 (stereo not drawn) was 7.143%. Cc1cc2c(cc1CNC(Cc1cccs1)c1nccs1)OCO2 (stereo not drawn) gave 15.84%. With CC(CNC(=O)NCc1ccc2c(c1)OCO2)CC1(C)OCCO1 (stereo not drawn) the screen gave 9.023%. For Cc1nc2c(c(N(C)C)n1)CCN(C(=O)c1ccc(N)nc1)C2 the result was 21.32%.

Result for Cc1nn(-c2ccccc2)cc1C(=O)N1CCCC(n2cccn2)C1 (stereo not drawn) was 18.18%. For Cc1cccc(C(C)(C)NC(=O)CS(=O)(=O)CC(C)C)c1 the result was 20.62%. Result for O=S(=O)(c1cccc(F)c1)N1CC[C@H]2[C@H]1CCN2c1ncccn1 was 13.77%. Cc1[nH]c2c(C)ccc(C)c2c1CC(=O)NCCCNc1cccnc1 gave 9.507%.

With COCCOc1ccccc1CNCC1COC2(CCCC2)O1 (stereo not drawn) the screen gave 9.441%. Cc1nccc(N[C@H]2CN(C(=O)C3(C#N)CCOCC3)C[C@@H]2C(C)C)n1 read 1.053%. For Cc1[nH]n(-c2ccccc2)c2nnc(N)c1-2 the result was 5.978%. For CC(C)N(C)C(=O)CN1C(=O)OC[C@@H]1c1ccccc1 the result was 18.35%.

Cc1n[nH]c(C)c1CCN(C)C(=O)c1ccc(CCC(C)(C)O)cc1 gave 17.93%. For Cc1cccc(NC(=O)[C@@H]2CCCN2Cc2nc3ccccc3o2)n1 the result was 2.122%. Result for O=C(CSc1ccc2c(c1)OCCO2)NS(=O)(=O)c1ccccc1 was 9.363%. CC(C)C(C)NC(=O)Nc1cccc2c1CCN(S(C)(=O)=O)C2 (stereo not drawn) read 9.549%.

For Cc1n[nH]c(C2CN(C(=O)c3ccc(Cl)o3)CCO2)n1 (stereo not drawn) the result was 15.27%. With COCCOCC(=O)NC(C#N)c1c(F)cccc1Cl (stereo not drawn) the screen gave 2.135%. With Cn1cnc(S(=O)(=O)N2C[C@H]3CN(Cc4ccccn4)C[C@H]3C2)c1 the screen gave 4.498%. COc1ccc(NCC(=O)NCC(=O)N2CCCC2)c(C(F)(F)F)c1 gave 3.359%.

Result for CC(c1cccc(Cl)c1)N(C)Cc1nc2c(cnn2C)c(=O)[nH]1 (stereo not drawn) was 16.83%. For CCC(=O)NC(CC)c1ccccc1C (stereo not drawn) the result was 9.524%. CC(C)NC(=O)[C@@]12CCO[C@@H]1CCN(Cc1ccco1)C2 read 9.836%. CN(CCCNC(=O)CN1CCS(=O)(=O)CC1)c1ccccc1 gave 0.9639%.

For O=C(COc1ccc2c(c1)CCCC2=O)NCc1ccco1 the result was 10.03%. O=C(NCC1(O)CCOC1)c1ccccc1Cl (stereo not drawn) gave 8.447%. Result for CCN1CCO[C@@H]2CN(C(=O)c3cocn3)C[C@@H]2C1 was 2.618%. CCCN(CCC)Cc1nnsc1Cl gave 8.099%.

With c1ccc2c(c1)CC(N1CCCC(NCc3cccc4nonc34)C1)C2 (stereo not drawn) the screen gave 12.97%. Cc1n[nH]c(C)c1CN(C)C(C(=O)O)c1ccc2c(c1)OCO2 (stereo not drawn) gave 1.828%. OCCc1cc(CC2(NCc3ccncc3)COC2)no1 gave 12.05%. For CC(C1CC1)N(C(=O)NCCCn1nc2ccccn2c1=O)C1CC1 (stereo not drawn) the result was 7.389%.

With Cc1nn2cccnc2c1C(=O)N1CCCC(Nc2ccccc2)C1 (stereo not drawn) the screen gave 8.392%. Result for CCOc1ccc(CNC(C)c2cccc(S(=O)(=O)NC)c2)cc1 (stereo not drawn) was 9.89%. NCC1Cc2cccc(-c3ccc(O)c(F)c3)c2O1 (stereo not drawn) gave 14.63%. For O=c1[nH]c2ncccc2n1C1CCCCC1 the result was 18.87%.

Result for COc1cc(N2C[C@H]3CCC[C@@H](CN(C)C4CC4)[C@H]3C2)ncn1 was 0.6667%. Cc1ccc(-c2cn3c(n2)CO[C@@H](CNCc2cccnc2)C3)cc1 gave 3.729%. CC(C)CCN1CC2(CCCN(C(=O)NCc3cccs3)C2)CCC1=O (stereo not drawn) gave 14.78%. For O=C1c2cnc(N3CCCCC3)nc2CN1c1ccc2c(c1)OCO2 the result was -1.737%.

For O=C(NC1CCc2nccn2C1)c1ccc(OCC2CC2)nc1 (stereo not drawn) the result was 13.19%. For O=C1N(c2cccc(Cl)c2)Cc2nc(=O)n(Cc3cccc(F)c3)n21 the result was 19.5%. With O=C1C(CS(=O)(=O)Nc2ccc(Cl)cc2)=NC(=O)n2cccc21 the screen gave 8.182%. With COc1cc(/C=C/c2ncc(C(=O)O)s2)cc(Cl)c1O the screen gave 14.58%.

O=C(NCCCn1ccnc1)N1CCCC1c1ccsc1 (stereo not drawn) gave 13.72%. O=S(=O)(NC1CCC2(CC1)OCCO2)c1cccc(Br)c1 read 1.449%. For CCCNC(=O)c1cc(-c2ccn(C(C)C)n2)n2ccccc12 the result was 19.93%. For Cc1ccc(C(=O)NCCCNc2ccc(C(F)(F)F)cn2)cc1 the result was 17.37%.

CC1c2ncc(CNC(=O)C3CC3)n2CCN1Cc1ccccn1 (stereo not drawn) gave 1.918%. CC(=O)N1CCc2ncc(CNC(=O)C3CCC3)n2CC1 read 12.69%. Result for COc1ccc(CCN(C)CCS(=O)(=O)c2ccc(Cl)cc2)cc1OC was 21.77%.

3 of the entries, repeated:

Cc1nccc(N[C@H]2CN(C(=O)C3(C#N)CCOCC3)C[C@@H]2C(C)C)n1 gave 1.053%.
Cc1ccc(-c2cn3c(n2)CO[C@@H](CNCc2cccnc2)C3)cc1 gave 3.729%.
Cc1cc2c(cc1CNC(Cc1cccs1)c1nccs1)OCO2 (stereo not drawn) gave 15.84%.

From ChEMBL document CHEMBL3988442, “University of Dundee, Small-Polar-MMV Screening Library” (2021).